The record followed here is patent US4959352 (dated 1990).

This data set is described as follows: general procedure: Boc solid-phase peptide synthesis; benzhydrylamine (BHA) resin; DCC (HOBt preactivation for Boc-Asn-OH); BOP for on-resin cyclization. The following applies: whole synthesis, scale 0.255 mmol.

As to “Cyclo^8,12 desNH2 Tyr^1,Ala^15 ]-GRF(1-29)-NH2”, the crude mass was 450 mg.
